Data on one substance can be found in US11779597B2, “Method of treating Parkinson's and other neurodegenerative diseases” (Vector Vitale IP LLC, priority 2019, dated 2023).

For data set [1], the system named is microglia. The data set can be described thus: Functional and phenotypic properties of microglia in LPS rat models. To be noted: sham-operated animals. The class given is in vivo. The protocol:
(§1) On the 1st day of the experiment, rats were either operated to model hemi-parkinsonism or sham operated. From the 9th to the 18th day of the experiment, the animals were injected either deuterium-depleted water or the test substance, according to their allocation into groups, for 10 days. On the 8th day of the experiment (before initiation of treatment—apomorphine test I) and on the 21st day of the experiment (after the end of administering the test substance —apomorphine test II) the animals underwent an apomorphine test to analyze the development of hemi-parkinsonism which correlates with the number of destroyed dopaminergic neurons. In addition, a follow-up analysis of fecal water content was carried out, i.e., before the start of treatment on the 8th day after the operation, as well as on the 21st (after the end of treatment) and the 28th day (before autopsy). […]
(§2) To assess the anti-inflammatory and immunomodulating effects of the test substance, microglia and peritoneal macrophages were isolated. Phenotypic and functional features of peripheral blood phagocytes were evaluated without their fractioning (using whole blood). […]
(§3) Phagocytic activity of microglia, peritoneal macrophages and peripheral blood phagocytes was analyzed on a flow cytometer using FITC-labeled S. aureus Wood 46 cells as an object of phagocytosis. […]

The subject of data set [2] is peritoneal macrophages. Briefly: Functional and phenotypic properties of peritoneal phagocytes in LPS rat models. The following applies: sham-operated animals. The format is in vivo. The protocol: as §1, §2, §3

With “^64Zn-enriched zinc aspartate [^64Zne-asp]”, in data set [1], the “expression of all phenotypic markers under study (CD206, CD80, CD86) in microglia” value was “decrease”; the “number of CD206+ and CD80+ cells in microglia” value is on record as “sharply increased”. In data set [2], the “expression of all phenotypic markers in peritoneal macrophages” value is reported as “sharp increase”.
